According to patent US20240309066A1, “MEANS AND METHODS FOR THE TREATMENT OF CALCIUM CRYSTAL DEPOSITION DISEASES” (UNIVERSITEIT MAASTRICHT, priority 2021, published 2024):

Assay: Total calcium, phosphate and protein measurements in pellets of in vitro precipitates
Format: biochemical
Details: total protein content determination
Experimental: To test this, particles were allowed to form for 2 or 24 hours in the presence or absence (control) of bFetuin or the peptide according to SEQ ID NO: 1. and subsequently harvested by centrifugation, washed and dissolved in acid, followed by total calcium, phosphate and protein measurements in the pellet and the supernatant.
Quantification of deposited calcium was carried out using a calcium determination kit (Randox, London, United Kingdom) according to the manufacturer's instruction, after hydrolysis of mineral deposits in 0.1M HCl. Calcium measurements were normalized to protein content using micro DC Protein Assay (Termo Scientifc, Bleiswijk, the Netherlands). To be able to measure protein content, an equal amount of 0.1M NaOH was used to neutralize the acid and 0.1% SDS (final concentration) was added to lyse cells in the cellular calcification assays.
Quantification of deposited phosphate was carried out using a phosphate colorimetric assay (Sigma, MK030) according to manufacturer's instruction after solubilisation of precipitates in 0.1M HCL.

Molecule	protein incorporated in the pellet
peptide according to SEQ ID NO: 1: circular polypeptide of 30 D-amino acids LIYRQPNCDDPETEEAALVAIDYIAPHGPG, D-Leucine at position 1 linked to D-Glycine at position 30 (head-to-tail cyclic, D-amino acids; listed as Homo Sapiens)	≤ 22%
bFetuin: bovine Fetuin (Sigma-Aldrich, #F2379), positive control for precipitation inhibition (protein, UniProt Q58D62 19-387, looked up) Fetuin-B: TSPPQPAARPSSLLSLDCNSSYVLDIANDILQDINRDRKDGYVLSLNRVSDAREHRQEAGLGSLFYFTLDVLETGCHVLSRTSWKNCEVRIFHESVYGQCKAIFYINKEKRIFYLPAYNCTLRPVSQSAIIMTCPDCPSTSPYDLSNPRFMETATESLAKYNSESPSKQYSLVKITKTSSQWVFGPAYFVEYLIKESPCVKSEGSSCALESPGSVPVGICHGSLGEPQGNQGKIISVTCSFFNSQAPTPRGENATVNQRPANPSKTEELQQQNTAPTNSPTKAVPKGSVQYLPDWDKKREGSQEKDPVETFPVQLDLTTNPQGESLDVSFLFQEPMEEKVVVLPFPSKEQRSAECPGPAQKGYPFILPS	Up to 4%
